## Assay results

By UniProt entry, the sequences of proteins in these tests, tags left out.
UniProt P20594, whole entry, target on record: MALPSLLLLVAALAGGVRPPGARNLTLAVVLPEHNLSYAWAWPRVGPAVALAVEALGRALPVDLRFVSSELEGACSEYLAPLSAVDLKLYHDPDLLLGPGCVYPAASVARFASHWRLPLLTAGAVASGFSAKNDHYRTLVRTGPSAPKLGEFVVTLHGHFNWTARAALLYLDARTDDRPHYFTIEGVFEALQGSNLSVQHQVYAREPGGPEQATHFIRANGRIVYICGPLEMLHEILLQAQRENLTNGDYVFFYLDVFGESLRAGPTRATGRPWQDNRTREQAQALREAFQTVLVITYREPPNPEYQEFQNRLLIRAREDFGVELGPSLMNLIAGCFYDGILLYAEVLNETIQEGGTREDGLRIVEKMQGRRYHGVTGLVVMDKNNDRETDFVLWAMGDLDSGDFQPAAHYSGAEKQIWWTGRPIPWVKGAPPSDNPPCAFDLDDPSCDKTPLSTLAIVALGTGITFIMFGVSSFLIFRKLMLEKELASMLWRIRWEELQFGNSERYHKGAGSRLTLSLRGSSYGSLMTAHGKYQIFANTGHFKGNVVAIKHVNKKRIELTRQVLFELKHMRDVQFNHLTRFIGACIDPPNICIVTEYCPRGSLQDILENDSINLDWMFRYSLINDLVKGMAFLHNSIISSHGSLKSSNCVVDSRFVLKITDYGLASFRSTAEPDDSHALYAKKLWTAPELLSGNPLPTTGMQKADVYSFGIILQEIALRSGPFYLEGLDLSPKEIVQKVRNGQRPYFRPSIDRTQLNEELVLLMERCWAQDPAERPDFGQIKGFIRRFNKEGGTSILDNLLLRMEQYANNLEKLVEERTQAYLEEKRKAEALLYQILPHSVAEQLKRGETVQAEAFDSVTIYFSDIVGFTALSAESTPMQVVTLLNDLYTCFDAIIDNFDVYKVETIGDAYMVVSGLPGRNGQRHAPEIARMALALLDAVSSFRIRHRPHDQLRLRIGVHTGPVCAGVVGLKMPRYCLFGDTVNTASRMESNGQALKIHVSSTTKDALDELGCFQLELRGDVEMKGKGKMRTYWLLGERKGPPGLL

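HEK293 cells carrying human NPR2 and a luciferase cGMP sensor; light output measured 20 min after NppC peptide stimulation, looking for blockers.
Compounds were tested as a titration series reaching about 38.3 µM at most.
The value is the fitted half-maximal inhibitory potency; a lower number means a more potent blocker.
Calls come from curve class and activity score: actives score 40–100, and compounds whose pre-read curve class is not 4 are inconclusive with score 10.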

Values are in nM.
Every entry below has the call inconclusive.
Only part of the assay is shown, chiefly results filed as inconclusive.
A potency from a partial, single-point or poor curve is only a rough figure.
Some entries filed as inconclusive have a full curve.
Activity scores are not listed here.

structure,Potency (nM),curve
C=CC(=O)c1ccc(CCCCCC)cc1,23280,"inhibitor, single point"
CC(=O)SC1CC2=CC(=O)CC[C@]2(C)C2CC[C@@]3(C)C(CC[C@@]34CCC(=O)O4)C12 (some centres unmarked),26121,"inhibitor, single point"
CCNC(=O)N1CCN(CCCC(c2ccc(F)cc2)c2ccc(F)cc2)CC1,16481,"inhibitor, single point"
COc1cc([C@@H]2c3cc4c(cc3[C@H](O)C3COC(=O)[C@@H]32)OCO4)cc(OC)c1OC (some centres unmarked),328.9,"inhibitor, full curve"
CN1C2CCC1CC(OC(c1ccccc1)c1ccccc1)C2 (centres unmarked),1469,"inhibitor, partial curve"
COC(=O)C1=C(C)NC(C)=C(C(=O)OCCN(C)Cc2ccccc2)C1c1cccc([N+](=O)[O-])c1 (centres unmarked),26121,"inhibitor, single point"
CN(C)CCCN1c2ccccc2Sc2ccc(C(F)(F)F)cc21,26121,"inhibitor, single point"
CN(C)CCC=C1c2ccccc2CCc2ccccc21,13091,"inhibitor, single point"
S=C(S)OC1CC2CC1C1CCCC21 (centres unmarked),18492,"inhibitor, single point"
CC12C(=O)OC(=O)C1(C)C1CCC2O1 (centres unmarked),14689,"inhibitor, single point"
CN(C)CCC(c1ccc(Cl)cc1)c1ccccn1 (centres unmarked),23280,"inhibitor, single point"
NS(=O)(=O)C#Cc1ccccc1,16481,"inhibitor, partial curve"
CC(C)N(CCC(=O)c1ccc2ccccc2c1)Cc1ccccc1,16481,"inhibitor, single point"
CCC1(O)CC2CN(CCc3c([nH]c4ccccc34)[C@@](C(=O)OC)(c3cc4c(cc3OC)N(C=O)C3[C@]45CCN4CC=C[C@@](CC)([C@@H](OC(C)=O)[C@]3(O)C(=O)OC)[C@H]45)C2)C1 (some centres unmarked),1040,"inhibitor, full curve, poor fit"

Source: PubChem BioAssay AID1347050 (NCATS, 2019).